Source: the supplement of paper PMC10849652
The list shows a part of the results.

Chains of the proteins cited; added tags and fusions are not shown. Lines headed by an entry give the natural chain unless they say otherwise; changes in a name come on top.
UniProt Q8N961, whole entry, looked up: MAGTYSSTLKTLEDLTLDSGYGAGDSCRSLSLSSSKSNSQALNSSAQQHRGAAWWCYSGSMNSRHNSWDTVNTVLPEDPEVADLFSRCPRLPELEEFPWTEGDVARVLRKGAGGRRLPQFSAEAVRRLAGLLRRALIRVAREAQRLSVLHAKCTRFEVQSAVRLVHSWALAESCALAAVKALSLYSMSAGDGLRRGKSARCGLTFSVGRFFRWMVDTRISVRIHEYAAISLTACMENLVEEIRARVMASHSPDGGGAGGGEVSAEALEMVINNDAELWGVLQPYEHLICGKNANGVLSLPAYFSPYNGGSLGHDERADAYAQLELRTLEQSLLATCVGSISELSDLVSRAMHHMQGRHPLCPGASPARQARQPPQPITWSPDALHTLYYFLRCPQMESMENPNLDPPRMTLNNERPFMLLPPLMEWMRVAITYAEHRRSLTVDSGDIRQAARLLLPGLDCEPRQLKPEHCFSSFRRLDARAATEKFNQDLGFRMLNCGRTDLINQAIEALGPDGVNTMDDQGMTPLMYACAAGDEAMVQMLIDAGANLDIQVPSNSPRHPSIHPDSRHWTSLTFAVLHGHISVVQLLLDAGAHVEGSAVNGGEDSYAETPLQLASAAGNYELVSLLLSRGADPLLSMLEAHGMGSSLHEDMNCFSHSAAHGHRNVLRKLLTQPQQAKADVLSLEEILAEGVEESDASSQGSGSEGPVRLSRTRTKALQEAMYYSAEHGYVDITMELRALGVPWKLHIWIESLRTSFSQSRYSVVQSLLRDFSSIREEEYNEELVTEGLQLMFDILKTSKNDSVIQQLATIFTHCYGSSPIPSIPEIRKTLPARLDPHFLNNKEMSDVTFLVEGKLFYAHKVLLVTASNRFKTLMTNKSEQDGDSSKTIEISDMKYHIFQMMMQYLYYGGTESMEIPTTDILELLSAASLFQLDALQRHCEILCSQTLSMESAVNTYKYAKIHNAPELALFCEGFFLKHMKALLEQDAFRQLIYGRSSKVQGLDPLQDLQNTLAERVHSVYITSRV
UniProt Q5T3U5: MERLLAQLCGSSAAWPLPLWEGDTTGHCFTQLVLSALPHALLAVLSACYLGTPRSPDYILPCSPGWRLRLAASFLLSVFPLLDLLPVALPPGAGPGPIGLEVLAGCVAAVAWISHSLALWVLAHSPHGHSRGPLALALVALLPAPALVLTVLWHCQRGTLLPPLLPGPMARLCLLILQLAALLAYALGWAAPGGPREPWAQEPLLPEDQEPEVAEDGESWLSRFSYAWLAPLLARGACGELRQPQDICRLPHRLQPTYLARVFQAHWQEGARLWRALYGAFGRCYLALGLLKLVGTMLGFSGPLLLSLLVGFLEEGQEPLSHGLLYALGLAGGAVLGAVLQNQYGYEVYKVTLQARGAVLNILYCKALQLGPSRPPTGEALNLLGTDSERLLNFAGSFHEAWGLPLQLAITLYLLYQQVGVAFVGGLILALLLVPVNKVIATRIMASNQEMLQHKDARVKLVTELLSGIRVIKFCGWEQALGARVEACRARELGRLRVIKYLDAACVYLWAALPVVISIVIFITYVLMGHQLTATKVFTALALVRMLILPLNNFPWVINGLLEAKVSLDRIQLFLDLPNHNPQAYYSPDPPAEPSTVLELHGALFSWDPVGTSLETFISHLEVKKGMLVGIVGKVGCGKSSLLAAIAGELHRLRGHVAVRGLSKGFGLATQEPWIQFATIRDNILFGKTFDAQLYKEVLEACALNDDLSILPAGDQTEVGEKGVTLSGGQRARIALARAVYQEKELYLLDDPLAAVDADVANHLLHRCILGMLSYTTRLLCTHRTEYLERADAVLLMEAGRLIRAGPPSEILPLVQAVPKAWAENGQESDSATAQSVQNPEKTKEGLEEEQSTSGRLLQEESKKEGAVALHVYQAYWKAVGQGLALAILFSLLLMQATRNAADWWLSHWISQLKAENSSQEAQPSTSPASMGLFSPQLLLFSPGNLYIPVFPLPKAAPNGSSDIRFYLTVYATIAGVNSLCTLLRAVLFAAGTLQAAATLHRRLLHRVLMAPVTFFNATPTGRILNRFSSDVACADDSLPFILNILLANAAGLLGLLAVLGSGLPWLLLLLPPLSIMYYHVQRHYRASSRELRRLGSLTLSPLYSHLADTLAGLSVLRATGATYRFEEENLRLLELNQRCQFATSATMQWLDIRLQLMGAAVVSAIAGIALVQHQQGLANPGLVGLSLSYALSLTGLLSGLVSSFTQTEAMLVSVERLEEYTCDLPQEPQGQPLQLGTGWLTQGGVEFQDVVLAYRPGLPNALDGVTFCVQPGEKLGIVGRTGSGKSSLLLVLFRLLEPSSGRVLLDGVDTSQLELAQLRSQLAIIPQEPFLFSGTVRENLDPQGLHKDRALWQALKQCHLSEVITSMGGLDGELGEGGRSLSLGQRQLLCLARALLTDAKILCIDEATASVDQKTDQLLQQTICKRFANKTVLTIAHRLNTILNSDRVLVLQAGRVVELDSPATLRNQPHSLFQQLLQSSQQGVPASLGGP
UniProt O15438: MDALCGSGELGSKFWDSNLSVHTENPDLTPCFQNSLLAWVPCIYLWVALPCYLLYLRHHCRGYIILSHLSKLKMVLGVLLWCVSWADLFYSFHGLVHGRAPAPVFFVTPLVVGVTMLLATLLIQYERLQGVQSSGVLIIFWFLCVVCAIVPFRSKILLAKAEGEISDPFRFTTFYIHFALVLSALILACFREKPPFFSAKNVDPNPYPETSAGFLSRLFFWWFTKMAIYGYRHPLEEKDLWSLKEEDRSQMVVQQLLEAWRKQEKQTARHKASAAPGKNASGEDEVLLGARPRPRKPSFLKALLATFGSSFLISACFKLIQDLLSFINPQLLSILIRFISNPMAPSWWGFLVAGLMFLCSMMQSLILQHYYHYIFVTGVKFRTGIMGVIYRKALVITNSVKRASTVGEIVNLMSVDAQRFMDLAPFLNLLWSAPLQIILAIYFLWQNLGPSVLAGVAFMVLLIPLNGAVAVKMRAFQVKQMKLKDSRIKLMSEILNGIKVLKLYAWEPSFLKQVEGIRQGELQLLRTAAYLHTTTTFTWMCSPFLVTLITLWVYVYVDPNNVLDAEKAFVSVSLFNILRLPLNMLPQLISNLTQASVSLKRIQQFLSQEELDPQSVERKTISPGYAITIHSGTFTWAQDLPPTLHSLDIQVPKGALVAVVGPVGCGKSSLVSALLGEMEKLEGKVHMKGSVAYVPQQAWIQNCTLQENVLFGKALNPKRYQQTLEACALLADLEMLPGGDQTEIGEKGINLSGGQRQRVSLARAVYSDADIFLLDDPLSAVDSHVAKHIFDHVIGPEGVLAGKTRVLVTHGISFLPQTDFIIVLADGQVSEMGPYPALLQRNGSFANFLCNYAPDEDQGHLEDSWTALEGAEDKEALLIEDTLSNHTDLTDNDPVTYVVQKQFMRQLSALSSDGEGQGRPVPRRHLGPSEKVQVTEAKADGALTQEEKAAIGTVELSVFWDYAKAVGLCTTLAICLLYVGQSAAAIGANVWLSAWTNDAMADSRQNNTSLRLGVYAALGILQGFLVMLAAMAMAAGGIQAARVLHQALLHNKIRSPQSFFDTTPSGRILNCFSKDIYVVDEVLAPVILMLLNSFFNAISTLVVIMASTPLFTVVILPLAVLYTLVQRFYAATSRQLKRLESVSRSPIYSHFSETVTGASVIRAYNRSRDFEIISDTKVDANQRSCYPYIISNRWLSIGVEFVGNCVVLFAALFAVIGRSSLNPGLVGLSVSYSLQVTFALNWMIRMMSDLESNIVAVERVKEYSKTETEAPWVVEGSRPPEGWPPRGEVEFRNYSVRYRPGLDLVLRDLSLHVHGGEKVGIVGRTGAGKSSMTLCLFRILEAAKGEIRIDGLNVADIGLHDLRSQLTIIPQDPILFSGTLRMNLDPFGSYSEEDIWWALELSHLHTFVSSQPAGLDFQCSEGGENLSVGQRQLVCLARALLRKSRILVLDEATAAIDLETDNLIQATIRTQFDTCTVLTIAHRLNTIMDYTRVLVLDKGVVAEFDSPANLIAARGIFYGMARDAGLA
UniProt Q96IU4: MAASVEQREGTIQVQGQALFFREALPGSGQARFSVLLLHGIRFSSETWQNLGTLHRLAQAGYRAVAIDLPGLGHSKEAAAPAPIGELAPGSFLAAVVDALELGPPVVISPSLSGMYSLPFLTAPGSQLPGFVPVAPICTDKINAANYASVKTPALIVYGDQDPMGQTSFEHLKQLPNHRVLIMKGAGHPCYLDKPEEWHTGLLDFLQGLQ
UniProt Q9UNQ0: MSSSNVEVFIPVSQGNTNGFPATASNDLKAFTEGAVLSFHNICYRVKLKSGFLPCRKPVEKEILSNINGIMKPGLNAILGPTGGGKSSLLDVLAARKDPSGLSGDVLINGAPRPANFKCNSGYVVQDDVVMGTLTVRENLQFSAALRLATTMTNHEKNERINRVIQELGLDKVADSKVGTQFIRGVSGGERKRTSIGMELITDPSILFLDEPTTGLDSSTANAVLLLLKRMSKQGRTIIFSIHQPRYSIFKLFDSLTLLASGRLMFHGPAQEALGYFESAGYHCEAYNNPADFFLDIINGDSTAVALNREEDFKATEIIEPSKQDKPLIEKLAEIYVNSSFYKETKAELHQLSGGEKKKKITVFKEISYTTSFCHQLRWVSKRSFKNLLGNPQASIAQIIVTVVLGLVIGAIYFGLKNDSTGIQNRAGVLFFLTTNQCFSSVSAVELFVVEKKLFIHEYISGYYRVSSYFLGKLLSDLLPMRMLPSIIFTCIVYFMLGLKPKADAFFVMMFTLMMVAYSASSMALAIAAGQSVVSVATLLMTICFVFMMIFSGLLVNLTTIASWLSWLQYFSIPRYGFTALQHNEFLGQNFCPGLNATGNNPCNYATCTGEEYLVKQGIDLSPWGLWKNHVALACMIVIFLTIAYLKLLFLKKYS
UniProt Q8IZP0: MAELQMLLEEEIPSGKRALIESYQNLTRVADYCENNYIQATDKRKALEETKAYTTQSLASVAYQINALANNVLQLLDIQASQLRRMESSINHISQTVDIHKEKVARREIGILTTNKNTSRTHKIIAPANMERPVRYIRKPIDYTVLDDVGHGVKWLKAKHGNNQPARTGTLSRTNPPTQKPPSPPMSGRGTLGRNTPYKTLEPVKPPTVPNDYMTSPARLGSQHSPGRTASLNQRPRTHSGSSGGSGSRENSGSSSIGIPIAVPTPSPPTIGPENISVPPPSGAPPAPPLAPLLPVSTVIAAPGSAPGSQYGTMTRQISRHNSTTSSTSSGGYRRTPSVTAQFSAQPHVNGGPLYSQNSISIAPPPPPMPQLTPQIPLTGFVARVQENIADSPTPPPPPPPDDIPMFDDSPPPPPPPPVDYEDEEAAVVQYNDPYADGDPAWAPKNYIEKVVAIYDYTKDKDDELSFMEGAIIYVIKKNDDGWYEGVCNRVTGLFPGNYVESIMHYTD
UniProt P00519, whole entry, looked up: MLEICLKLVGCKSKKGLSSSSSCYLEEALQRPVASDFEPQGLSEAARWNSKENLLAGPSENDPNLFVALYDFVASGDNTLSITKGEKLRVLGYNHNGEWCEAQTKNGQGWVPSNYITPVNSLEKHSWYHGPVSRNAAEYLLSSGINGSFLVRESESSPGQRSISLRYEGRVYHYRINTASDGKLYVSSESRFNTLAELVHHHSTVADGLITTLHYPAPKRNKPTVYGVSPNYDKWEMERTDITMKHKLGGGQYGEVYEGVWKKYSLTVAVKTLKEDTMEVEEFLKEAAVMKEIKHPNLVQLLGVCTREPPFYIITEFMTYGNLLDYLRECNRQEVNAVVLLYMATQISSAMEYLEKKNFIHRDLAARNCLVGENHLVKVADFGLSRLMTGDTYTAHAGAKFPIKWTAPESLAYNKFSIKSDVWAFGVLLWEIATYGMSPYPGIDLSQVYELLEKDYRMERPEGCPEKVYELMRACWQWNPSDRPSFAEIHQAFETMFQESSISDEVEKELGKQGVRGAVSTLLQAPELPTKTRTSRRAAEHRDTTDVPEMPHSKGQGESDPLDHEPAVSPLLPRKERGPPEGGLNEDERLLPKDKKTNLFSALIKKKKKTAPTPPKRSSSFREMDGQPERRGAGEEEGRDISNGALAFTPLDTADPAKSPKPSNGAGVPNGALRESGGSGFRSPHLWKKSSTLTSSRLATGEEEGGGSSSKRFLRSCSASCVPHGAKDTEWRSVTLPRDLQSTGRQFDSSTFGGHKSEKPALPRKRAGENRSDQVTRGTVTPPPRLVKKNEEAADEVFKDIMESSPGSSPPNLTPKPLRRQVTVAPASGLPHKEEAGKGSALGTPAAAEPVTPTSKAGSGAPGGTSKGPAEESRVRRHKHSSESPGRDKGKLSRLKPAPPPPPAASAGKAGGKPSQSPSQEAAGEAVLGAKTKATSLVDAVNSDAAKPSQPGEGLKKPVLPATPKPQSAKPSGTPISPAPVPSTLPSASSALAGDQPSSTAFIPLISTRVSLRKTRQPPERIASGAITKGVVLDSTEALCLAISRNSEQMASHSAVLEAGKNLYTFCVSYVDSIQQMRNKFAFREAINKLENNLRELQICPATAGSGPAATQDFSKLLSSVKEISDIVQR

What was measured:
Assay in all cases: log2 fold change, soluble protein after heating vs DMSO (PISA); higher = thermal stabilisation; K562 lysate, 10 uM; active = over 0.2 and 3.5 SD of the protein, either way, in both replicates (recomputed)
lapatinib = compound: CS(=O)(=O)CCNCc1ccc(-c2ccc3ncnc(Nc4ccc(OCc5cccc(F)c5)c(Cl)c4)c3c2)o1 [lapatinib]
Outline: (§1)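 A 30 min treatment with 10 μM compound was applied to crude K562 extract at 1 mg/mL protein in PBS pH 7.4 with 1 mM MgCl2. Heating for 3 min spanned 48°C-58°C, after which aliquots were pooled, adjusted to 0.5% NP-40 at 4°C and spun at 21,000xg for 90 min. TMTpro 16plex LC-MS/MS of the supernatant, with channel sums equalised, gave values recorded as log-two fold change in thermal stability against solvent controls, from duplicates.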

pictilisib = compound: CS(=O)(=O)N1CCN(Cc2cc3nc(-c4cccc5[nH]ncc45)nc(N4CCOCC4)c3s2)CC1 [pictilisib]
Outline: as §1

crizotinib = compound: C[C@@H](Oc1cc(-c2cnn(C3CCNCC3)c2)cnc1N)c1c(Cl)ccc(F)c1Cl [crizotinib]
Outline: as §1

[1] = compound: C[C@H](C1=CC=C(C=C1)C(=O)NC2=C3C=CNC3=NC=C2)N
Outline: as §1

duvelisib = compound: C[C@H](Nc1ncnc2nc[nH]c12)c1cc2cccc(Cl)c2c(=O)n1-c1ccccc1 [duvelisib]
Outline: as §1

gandotinib = compound: Cc1cc(Nc2cc(CN3CCOCC3)c3nc(C)c(Cc4ccc(Cl)cc4F)n3n2)n[nH]1 [gandotinib]
Outline: as §1

tozasertib = compound: Cc1cc(Nc2cc(N3CCN(C)CC3)nc(Sc3ccc(NC(=O)C4CC4)cc3)n2)n[nH]1 [tozasertib]
Outline: as §1

doramapimod = compound: Cc1ccc(-n2nc(C(C)(C)C)cc2NC(=O)Nc2ccc(OCCN3CCOCC3)c3ccccc23)cc1 [doramapimod]
Outline: as §1

bafetinib = compound: Cc1ccc(NC(=O)c2ccc(CN3CC[C@H](N(C)C)C3)c(C(F)(F)F)c2)cc1Nc1nccc(-c2cncnc2)n1 [bafetinib]
Outline: as §1

[2] = compound: Cc1cccc(CC(=O)N2CCc3c2ccc(-c2cn(C)c4ncnc(N)c24)c3F)n1
Outline: as §1

nilotinib = compound: Cc1cn(-c2cc(NC(=O)c3ccc(C)c(Nc4nccc(-c5cccnc5)n4)c3)cc(C(F)(F)F)c2)cn1 [nilotinib]
Outline: as §1

[3] = compound: Cc1nc(Nc2n[nH]c3c2CN(C(=O)N[C@H](CN(C)C)c2ccccc2)C3(C)C)c2sccc2n1
Outline: as §1

dasatinib = compound: Cc1nc(Nc2ncc(C(=O)Nc3c(C)cccc3Cl)s2)cc(N2CCN(CCO)CC2)n1 [dasatinib]
Outline: as §1

[4] = compound: Cc1ncc(-c2ccnc(Nc3ccc(S(C)(=O)=O)cc3)n2)n1C(C)C
Outline: as §1

[5] = compound: Cn1cc(-c2ccc3c(c2)CCN3C(=O)Cc2cccc(C(F)(F)F)c2)c2c(N)ncnc21
Outline: as §1

quisinostat = compound: Cn1cc(CNCC2CCN(c3ncc(C(=O)NO)cn3)CC2)c2ccccc21 [quisinostat]
Outline: as §1

tipifarnib = compound: Cn1cncc1[C@@](N)(c1ccc(Cl)cc1)c1ccc2c(c1)c(-c1cccc(Cl)c1)cc(=O)n2C [tipifarnib]
Outline: as §1

[6] = compound: NC(=O)Nc1cc(-c2cccc(F)c2)sc1C(=O)N[C@H]1CCCNC1
Outline: as §1

[7] = compound: NC(=O)c1cnc(N[C@@H]2CCCC[C@@H]2N)nc1Nc1cccc(-n2nccn2)c1
Outline: as §1

[8] = compound: NC1(c2ccc(-c3nc4ccn5c(=O)[nH]nc5c4cc3-c3ccccc3)cc2)CCC1
Outline: as §1

Measured: log2 fold change

ABL2 (UniProt P42684)
inactive: lapatinib -0.053 | pictilisib -0.029 | crizotinib 0.367 | [1] -0.216 | duvelisib 0.079 | gandotinib 0.228 | tozasertib 0.273 | doramapimod -0.04 | bafetinib 0.439 | [2] 0 | nilotinib -0.084 | [3] 0.157 | dasatinib 0.067 | [4] 0.091 | [5] 0.064 | quisinostat -0.16 | tipifarnib -0.116 | [6] 0.103 | [7] -0.028 | [8] -0.027

ACACA isoform 4 (UniProt Q13085)
inactive: lapatinib -0.019 | pictilisib 0 | crizotinib -0.081 | [1] -0.001 | duvelisib 0.032 | gandotinib -0.068 | tozasertib 0.033 | doramapimod 0.045 | bafetinib -0.056 | [2] 0.061 | nilotinib -0.032 | [3] 0.004 | dasatinib -0.037 | [4] 0.028 | [5] 0.043 | quisinostat -0.024 | tipifarnib 0.081 | [6] 0.03 | [7] 0.01 | [8] -0.019

A0A494C100, A0A494C100
inactive: pictilisib 0.079 | [1] -0.143 | duvelisib 0.028 | gandotinib -0.162 | bafetinib -0.078 | [2] 0.329 | dasatinib 0.038 | [5] 0.023

ACAD10 isoform 5 (UniProt Q6JQN1)
inactive: lapatinib -0.064 | crizotinib -0.11 | [1] 0.223 | duvelisib 0.005 | gandotinib -0.079 | tozasertib -0.047 | doramapimod 0.024 | [2] -0.079 | nilotinib -0.054 | [3] -0.097 | dasatinib 0.015 | [4] 0.076 | [5] -0.03 | quisinostat -0.186 | tipifarnib -0.148 | [6] 0.013 | [7] 0.004 | [8] -0.043

ABTB2 (UniProt Q8N961)
inactive: pictilisib 0.1 | [1] -0.457 | gandotinib 0.027 | bafetinib -0.315 | [2] 0.228

ABCC10 (UniProt Q5T3U5)
inactive: [1] -0.126 | duvelisib -0.156 | gandotinib 0.048 | [2] -0.02 | nilotinib 0.209 | [3] 0.02 | dasatinib 0.082 | [4] 0.094 | [5] 0.02 | tipifarnib -0.008 | [8] -0.054

ABCC5 (UniProt O15440)
inactive: lapatinib 0.013 | pictilisib 0.13 | crizotinib 0.014 | [1] -0.038 | duvelisib -0.045 | gandotinib 0.043 | tozasertib -0.016 | doramapimod 0.081 | bafetinib -0.117 | [2] 0.045 | dasatinib 0.105 | [5] -0.047 | quisinostat -0.003 | [6] 0.035 | [7] -0.035 | [8] -0.015

ABCC3 isoform 4 (UniProt O15438)
inactive: lapatinib -0.15 | crizotinib -0.048 | duvelisib 0.047 | doramapimod -0.01 | dasatinib -0.056 | [5] -0.021 | quisinostat -0.005 | [6] 0.015 | [7] 0.05

ABHD14B (UniProt Q96IU4)
inactive: lapatinib 0.014 | pictilisib -0.003 | crizotinib 0.013 | [1] 0.025 | duvelisib -0.002 | gandotinib -0.006 | tozasertib 0.006 | doramapimod -0.002 | bafetinib -0.039 | [2] 0.013 | nilotinib 0.017 | [3] 0.004 | dasatinib 0.002 | [4] 0.052 | [5] -0.008 | quisinostat -0.039 | tipifarnib 0.004 | [6] -0.018 | [7] -0.02 | [8] -0.032

ABCG2 (UniProt Q9UNQ0)
inactive: [1] -0.019 | gandotinib -0.003 | [2] 0.174

ACAP1 (UniProt Q15027)
inactive: crizotinib 0.235 | [1] 0.188 | gandotinib -0.045 | doramapimod 0.042 | [2] 0.021 | quisinostat -0.121 | [6] 0.096

Reprinted at random: 2 entries already listed.
ABCG2 (UniProt Q9UNQ0)
inactive: [1] -0.019 | gandotinib -0.003 | [2] 0.174

ABHD14B (UniProt Q96IU4)
inactive: lapatinib 0.014 | pictilisib -0.003 | crizotinib 0.013 | [1] 0.025 | duvelisib -0.002 | gandotinib -0.006 | tozasertib 0.006 | doramapimod -0.002 | bafetinib -0.039 | [2] 0.013 | nilotinib 0.017 | [3] 0.004 | dasatinib 0.002 | [4] 0.052 | [5] -0.008 | quisinostat -0.039 | tipifarnib 0.004 | [6] -0.018 | [7] -0.02 | [8] -0.032

Continuation.

ABI1 isoform 6 (UniProt Q8IZP0)
inactive: lapatinib 0.007 | tozasertib -0.061 | [7] 0.113

ABL1 isoform 2 (UniProt P00519)
inactive: lapatinib -0.01 | pictilisib -0.094 | [1] 0.135 | duvelisib 0.004 | gandotinib -0.04 | [2] -0.048 | [3] 0.006 | [4] 0.019 | [5] -0.002 | quisinostat -0.074 | tipifarnib -0.074 | [6] 0.08 | [7] 0.022 | [8] -0.009

ACAT1, A0A5F9ZHJ0
inactive: [1] -0.151 | gandotinib -0.075 | [2] 0.208 | nilotinib -0.176 | [3] 0.063 | [4] 0.024 | tipifarnib 0.07

ABHD4 (UniProt Q8TB40)
inactive: nilotinib 0.151 | [3] 0.007 | [4] -0.078 | tipifarnib -0.027

ACLY isoform 2 (UniProt P53396)
inactive: lapatinib 0.012 | pictilisib -0.03 | crizotinib 0.078 | gandotinib 0.323 | tozasertib 0.055 | doramapimod -0.119 | bafetinib 0.004 | [2] 0.277 | nilotinib 0.08 | [3] 0.038 | [4] 0.191 | quisinostat 0.162 | tipifarnib 0.02 | [6] -0.027 | [7] -0.062
active: [1] -0.423

ABHD18 (UniProt Q0P651)
inactive: tozasertib -0.019 | nilotinib -0.222 | [3] 0.163 | [4] 0.086 | tipifarnib 0.195 | [8] 0.101

ABHD15 (UniProt Q6UXT9)
inactive: lapatinib -0.075 | [1] -0.088 | gandotinib 0.093 | tozasertib 0.054 | [2] 0.045 | [7] -0.014 | [8] 0.016
